# In the supplement of paper PMC10849652:
# Protein sequences, listed by entry. Tags and fused reporters are not part of them. Lines headed by an entry give the natural chain unless they say otherwise; changes in a name come on top.
# UniProt A2RUR9: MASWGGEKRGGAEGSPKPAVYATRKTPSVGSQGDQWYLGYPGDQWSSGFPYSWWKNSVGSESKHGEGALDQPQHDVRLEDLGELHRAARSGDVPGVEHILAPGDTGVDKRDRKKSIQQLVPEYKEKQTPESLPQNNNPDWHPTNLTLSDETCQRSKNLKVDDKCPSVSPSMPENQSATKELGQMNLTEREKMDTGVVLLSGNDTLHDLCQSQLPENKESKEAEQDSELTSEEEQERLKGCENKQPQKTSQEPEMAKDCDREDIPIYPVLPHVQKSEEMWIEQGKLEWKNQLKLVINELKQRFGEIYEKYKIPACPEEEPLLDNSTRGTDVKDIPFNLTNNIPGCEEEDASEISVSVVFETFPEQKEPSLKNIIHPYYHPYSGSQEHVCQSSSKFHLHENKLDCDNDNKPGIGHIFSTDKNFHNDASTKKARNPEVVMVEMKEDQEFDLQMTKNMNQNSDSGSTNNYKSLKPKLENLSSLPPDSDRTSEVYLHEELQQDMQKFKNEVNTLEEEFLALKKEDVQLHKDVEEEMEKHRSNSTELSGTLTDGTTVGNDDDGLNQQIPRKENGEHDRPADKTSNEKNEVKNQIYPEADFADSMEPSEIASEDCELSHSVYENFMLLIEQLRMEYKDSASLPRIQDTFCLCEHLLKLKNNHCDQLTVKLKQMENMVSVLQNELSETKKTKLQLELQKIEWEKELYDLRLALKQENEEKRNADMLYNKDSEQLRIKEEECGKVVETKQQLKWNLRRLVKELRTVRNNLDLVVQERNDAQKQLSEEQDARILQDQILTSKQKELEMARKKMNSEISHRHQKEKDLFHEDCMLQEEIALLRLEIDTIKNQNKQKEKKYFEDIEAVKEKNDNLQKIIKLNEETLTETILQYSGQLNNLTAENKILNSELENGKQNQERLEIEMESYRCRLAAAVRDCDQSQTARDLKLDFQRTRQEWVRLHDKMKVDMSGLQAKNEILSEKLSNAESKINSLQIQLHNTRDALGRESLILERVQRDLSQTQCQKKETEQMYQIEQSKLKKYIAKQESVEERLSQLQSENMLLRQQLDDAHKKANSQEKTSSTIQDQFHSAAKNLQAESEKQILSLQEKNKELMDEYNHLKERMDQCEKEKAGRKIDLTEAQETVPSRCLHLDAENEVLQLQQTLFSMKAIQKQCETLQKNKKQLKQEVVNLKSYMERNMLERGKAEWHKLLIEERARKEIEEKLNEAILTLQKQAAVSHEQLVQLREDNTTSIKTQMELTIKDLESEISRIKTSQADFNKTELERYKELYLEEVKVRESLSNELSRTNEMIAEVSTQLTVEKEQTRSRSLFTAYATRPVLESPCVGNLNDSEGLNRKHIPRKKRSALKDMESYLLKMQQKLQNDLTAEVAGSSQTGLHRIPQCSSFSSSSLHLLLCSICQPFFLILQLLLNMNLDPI
# UniProt P33681, whole entry, looked up: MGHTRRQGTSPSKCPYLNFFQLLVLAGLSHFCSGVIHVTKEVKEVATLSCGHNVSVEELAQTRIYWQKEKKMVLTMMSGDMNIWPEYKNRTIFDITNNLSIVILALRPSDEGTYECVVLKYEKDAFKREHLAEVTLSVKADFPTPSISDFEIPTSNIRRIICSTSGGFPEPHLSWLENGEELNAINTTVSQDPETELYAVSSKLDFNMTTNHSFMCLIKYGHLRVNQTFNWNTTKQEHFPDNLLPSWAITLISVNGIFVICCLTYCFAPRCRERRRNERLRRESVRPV
# UniProt Q4G0S7: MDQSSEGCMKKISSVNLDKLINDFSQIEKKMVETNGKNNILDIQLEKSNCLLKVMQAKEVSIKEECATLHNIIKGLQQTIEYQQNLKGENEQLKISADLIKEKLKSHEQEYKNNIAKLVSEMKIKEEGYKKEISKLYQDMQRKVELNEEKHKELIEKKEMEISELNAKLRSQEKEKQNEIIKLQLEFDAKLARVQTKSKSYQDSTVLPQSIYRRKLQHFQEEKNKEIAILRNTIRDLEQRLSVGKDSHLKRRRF
# UniProt P55210: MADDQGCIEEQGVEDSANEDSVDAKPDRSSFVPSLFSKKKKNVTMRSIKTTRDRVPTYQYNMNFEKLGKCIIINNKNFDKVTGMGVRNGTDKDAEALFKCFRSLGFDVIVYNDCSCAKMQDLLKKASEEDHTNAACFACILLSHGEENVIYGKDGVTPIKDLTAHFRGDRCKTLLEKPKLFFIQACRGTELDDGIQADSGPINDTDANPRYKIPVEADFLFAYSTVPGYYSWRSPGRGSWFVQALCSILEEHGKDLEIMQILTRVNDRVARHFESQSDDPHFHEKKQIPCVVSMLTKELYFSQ
# UniProt Q92526, whole entry, looked up: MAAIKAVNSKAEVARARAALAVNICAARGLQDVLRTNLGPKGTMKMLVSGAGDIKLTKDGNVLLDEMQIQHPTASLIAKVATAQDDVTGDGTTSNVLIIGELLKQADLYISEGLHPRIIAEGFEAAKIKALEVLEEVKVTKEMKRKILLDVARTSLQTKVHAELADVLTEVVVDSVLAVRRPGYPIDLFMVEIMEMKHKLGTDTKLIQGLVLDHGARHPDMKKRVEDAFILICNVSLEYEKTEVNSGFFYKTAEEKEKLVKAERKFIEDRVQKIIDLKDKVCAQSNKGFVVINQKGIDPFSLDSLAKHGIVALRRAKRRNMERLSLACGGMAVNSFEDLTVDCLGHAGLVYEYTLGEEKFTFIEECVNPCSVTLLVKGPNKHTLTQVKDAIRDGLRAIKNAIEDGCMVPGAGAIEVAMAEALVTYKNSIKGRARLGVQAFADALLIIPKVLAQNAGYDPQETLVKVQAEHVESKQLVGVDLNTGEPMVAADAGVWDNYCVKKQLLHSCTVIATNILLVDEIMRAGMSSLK
# UniProt P30279, whole entry, looked up: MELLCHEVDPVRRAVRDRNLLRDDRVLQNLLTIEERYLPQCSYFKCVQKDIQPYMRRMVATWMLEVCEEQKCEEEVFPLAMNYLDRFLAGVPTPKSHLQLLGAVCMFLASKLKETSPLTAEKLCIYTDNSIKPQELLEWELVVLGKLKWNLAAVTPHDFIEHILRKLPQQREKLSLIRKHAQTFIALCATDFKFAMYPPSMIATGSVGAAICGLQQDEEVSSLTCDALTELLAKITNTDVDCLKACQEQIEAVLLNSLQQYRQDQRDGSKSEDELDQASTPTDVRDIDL
# UniProt P16152: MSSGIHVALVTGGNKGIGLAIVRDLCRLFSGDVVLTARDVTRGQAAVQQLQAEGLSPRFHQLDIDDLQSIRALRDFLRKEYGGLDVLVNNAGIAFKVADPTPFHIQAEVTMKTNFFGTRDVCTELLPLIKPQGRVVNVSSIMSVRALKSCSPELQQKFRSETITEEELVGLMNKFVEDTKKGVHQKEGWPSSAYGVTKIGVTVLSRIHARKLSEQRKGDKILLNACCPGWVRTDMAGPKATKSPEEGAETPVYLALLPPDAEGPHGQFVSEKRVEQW
# UniProt Q8IVM0: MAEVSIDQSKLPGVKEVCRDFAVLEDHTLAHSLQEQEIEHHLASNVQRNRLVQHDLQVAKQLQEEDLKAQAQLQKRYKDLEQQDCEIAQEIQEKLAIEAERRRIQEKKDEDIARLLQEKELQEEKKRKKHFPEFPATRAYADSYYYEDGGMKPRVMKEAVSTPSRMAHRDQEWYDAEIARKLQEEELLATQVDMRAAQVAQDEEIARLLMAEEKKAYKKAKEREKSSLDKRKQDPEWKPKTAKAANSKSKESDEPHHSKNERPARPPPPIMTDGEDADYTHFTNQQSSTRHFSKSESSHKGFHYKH
# UniProt Q8IYE1: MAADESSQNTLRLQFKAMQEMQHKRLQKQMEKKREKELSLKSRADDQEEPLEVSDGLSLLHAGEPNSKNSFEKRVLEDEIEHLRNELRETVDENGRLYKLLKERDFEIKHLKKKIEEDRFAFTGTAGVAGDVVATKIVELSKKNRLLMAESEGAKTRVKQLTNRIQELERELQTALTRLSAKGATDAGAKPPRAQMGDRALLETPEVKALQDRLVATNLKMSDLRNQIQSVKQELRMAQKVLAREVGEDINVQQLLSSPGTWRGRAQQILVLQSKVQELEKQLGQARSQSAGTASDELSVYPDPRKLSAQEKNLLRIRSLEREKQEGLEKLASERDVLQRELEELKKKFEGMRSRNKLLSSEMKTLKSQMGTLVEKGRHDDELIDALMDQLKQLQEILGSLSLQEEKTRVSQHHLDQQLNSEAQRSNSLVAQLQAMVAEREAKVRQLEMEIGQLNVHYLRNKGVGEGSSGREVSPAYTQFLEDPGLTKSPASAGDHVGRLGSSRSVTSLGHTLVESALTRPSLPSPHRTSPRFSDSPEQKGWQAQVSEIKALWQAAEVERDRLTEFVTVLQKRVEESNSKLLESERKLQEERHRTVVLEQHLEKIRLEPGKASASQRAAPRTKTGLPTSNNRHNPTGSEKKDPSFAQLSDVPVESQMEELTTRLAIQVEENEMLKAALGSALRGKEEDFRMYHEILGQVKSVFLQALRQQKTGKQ
# UniProt O43439: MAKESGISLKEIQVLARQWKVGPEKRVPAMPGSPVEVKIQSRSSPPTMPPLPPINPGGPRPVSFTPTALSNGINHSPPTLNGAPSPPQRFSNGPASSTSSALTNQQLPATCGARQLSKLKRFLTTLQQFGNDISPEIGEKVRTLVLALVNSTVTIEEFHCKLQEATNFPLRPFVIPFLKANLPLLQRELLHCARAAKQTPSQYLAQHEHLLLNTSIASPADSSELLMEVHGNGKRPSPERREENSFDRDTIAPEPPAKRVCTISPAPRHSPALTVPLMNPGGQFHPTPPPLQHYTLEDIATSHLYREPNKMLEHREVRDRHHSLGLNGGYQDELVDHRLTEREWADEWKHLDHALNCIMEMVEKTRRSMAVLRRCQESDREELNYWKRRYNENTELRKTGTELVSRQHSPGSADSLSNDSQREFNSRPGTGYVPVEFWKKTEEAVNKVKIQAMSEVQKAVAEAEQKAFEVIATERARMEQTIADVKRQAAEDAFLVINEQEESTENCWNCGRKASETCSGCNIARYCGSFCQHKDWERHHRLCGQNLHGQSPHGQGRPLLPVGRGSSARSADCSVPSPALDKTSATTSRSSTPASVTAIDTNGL
# UniProt Q9P031: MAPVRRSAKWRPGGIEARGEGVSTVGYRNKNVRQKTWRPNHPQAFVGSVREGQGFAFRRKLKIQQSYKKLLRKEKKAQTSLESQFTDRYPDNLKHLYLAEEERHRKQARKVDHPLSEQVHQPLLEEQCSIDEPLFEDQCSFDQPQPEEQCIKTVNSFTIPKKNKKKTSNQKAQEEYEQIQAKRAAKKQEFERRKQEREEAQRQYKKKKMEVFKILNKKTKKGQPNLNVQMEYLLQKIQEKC
# UniProt Q15762: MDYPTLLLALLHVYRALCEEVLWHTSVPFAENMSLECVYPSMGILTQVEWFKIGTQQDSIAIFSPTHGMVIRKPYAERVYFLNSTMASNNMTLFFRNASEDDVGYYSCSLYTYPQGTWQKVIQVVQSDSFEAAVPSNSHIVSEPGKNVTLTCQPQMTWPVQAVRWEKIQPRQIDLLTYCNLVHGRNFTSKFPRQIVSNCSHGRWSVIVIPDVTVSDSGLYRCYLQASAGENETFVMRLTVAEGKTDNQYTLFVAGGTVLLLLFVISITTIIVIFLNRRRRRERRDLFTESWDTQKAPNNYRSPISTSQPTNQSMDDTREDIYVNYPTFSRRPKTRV
# UniProt Q14790: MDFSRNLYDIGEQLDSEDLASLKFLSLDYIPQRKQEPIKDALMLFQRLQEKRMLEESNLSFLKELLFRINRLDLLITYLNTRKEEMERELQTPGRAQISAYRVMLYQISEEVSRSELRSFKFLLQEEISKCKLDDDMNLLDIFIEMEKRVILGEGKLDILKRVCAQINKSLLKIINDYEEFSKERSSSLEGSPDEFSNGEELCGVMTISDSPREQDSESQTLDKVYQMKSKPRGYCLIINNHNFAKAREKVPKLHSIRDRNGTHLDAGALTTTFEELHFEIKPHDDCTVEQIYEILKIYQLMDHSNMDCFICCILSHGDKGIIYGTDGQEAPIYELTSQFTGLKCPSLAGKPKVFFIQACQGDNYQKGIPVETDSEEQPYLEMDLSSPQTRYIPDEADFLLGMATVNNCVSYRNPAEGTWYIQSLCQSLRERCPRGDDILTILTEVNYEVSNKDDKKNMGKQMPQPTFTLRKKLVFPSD
# UniProt P13994: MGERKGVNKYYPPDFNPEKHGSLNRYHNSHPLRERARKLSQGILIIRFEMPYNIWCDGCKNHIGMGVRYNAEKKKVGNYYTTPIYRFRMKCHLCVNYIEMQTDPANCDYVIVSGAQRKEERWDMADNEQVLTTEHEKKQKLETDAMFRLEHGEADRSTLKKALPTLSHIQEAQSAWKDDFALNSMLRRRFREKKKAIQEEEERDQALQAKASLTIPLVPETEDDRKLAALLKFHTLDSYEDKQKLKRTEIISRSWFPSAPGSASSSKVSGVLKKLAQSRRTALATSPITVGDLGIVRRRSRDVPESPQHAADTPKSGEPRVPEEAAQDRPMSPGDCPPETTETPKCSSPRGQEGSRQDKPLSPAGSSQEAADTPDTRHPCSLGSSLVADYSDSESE
# This is one part of the list.
# Assays:
# Assay in all cases: log2 fold change, soluble protein after heating vs DMSO (PISA); higher = thermal stabilisation; K562 lysate, 10 uM; active = over 0.2 and 3.5 SD of the protein, either way, in both replicates (recomputed)
# [1] = compound: CCCS(=O)(=O)Nc1ccc(F)c(C(=O)c2c[nH]c3ncc(Cl)cc23)c1F
# Procedure, shortened: (§1)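 Pellets of K562 cells were dounce-homogenised in PBS pH 7.4 with 1 mM MgCl2, and the crude extract was held at 1 mg/mL protein for a 30 min treatment with 10 μM compound. Aliquots were heated for 3 min over 48°C-58°C and pooled before NP-40 was added to 0.5% at 4°C. The supernatant from 21,000xg for 90 min was quantified by TMTpro 16plex LC-MS/MS with channel sums equalised. Values are reported from duplicates as log-two fold change in thermal stability relative to solvent controls.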
# [2] = compound: CCN(CCCOc1ccc2c(Nc3cc(CC(=O)Nc4cccc(F)c4)[nH]n3)ncnc2c1)CCOP(=O)(O)O [barasertib]
# Procedure, shortened: as §1
# [3] = compound: CC[C@@H]1C(=O)N(C)c2cnc(Nc3ccc(C(=O)N[C@H]4CC[C@H](N5CCN(CC6CC6)CC5)CC4)cc3OC)nc2N1C(C)C [volasertib]
# Procedure, shortened: as §1
# [4] = compound: CCn1cc(-c2ccnc3[nH]c(-c4cccc(CN(C)C)c4)cc23)c(-c2ccc(NC(=O)N(C)C)cc2)n1
# Procedure, shortened: as §1
# [5] = compound: CN1CCC(CNc2ccc3ncc(-c4cccc(OC(F)(F)F)c4)n3n2)CC1
# Procedure, shortened: as §1
# [6] = compound: CN1CC[C@H](c2c(O)cc(O)c3c(=O)cc(-c4ccccc4Cl)oc23)[C@H](O)C1 [alvocidib]
# Procedure, shortened: as §1
# [7] = compound: COc1cc(Nc2ncc3c(n2)-c2ccc(Cl)cc2C(c2c(F)cccc2OC)=NC3)ccc1C(=O)O [alisertib]
# Procedure, shortened: as §1
# [8] = compound: COc1cc2nc(-c3cc(F)ccc3O)nc(N[C@@H]3CNC[C@H]3C(C)(C)O)c2cc1OC
# Procedure, shortened: as §1
# [9] = compound: COc1cc2ncnc(Nc3ccc(F)c(Cl)c3)c2cc1OCCCN1CCOCC1 [gefitinib]
# Procedure, shortened: as §1
# [10] = compound: CCCS(=O)(=O)Nc1ccc(F)c(C(=O)c2c[nH]c3ncc(-c4ccc(Cl)cc4)cc23)c1F [vemurafenib]
# Procedure, shortened: as §1
# [11] = compound: CC[C@@H]1C(=O)N(C)c2cnc(Nc3ccc(C(=O)NC4CCN(C)CC4)cc3OC)nc2N1C1CCCC1
# Procedure, shortened: as §1
# [12] = compound: CN1CCN(CCOc2cc(OC3CCOCC3)c3c(Nc4c(Cl)ccc5c4OCO5)ncnc3c2)CC1 [saracatinib]
# Procedure, shortened: as §1
# [13] = compound: CN1CCN(c2nc(C3=C(c4c[nH]c5ccccc45)C(=O)NC3=O)c3ccccc3n2)CC1 [sotrastaurin]
# Procedure, shortened: as §1
# [14] = compound: CNC(=O)C1=CC=CC=C1NC2=NC(=NC=C2Cl)NC3=C(C=C(C=C3)N4CCOCC4)OC
# Procedure, shortened: as §1
# [15] = compound: CNC(=O)c1ccc(Nc2ncc(C(F)(F)F)c(NCc3nccnc3N(C)S(C)(=O)=O)n2)cc1 [defactinib]
# Procedure, shortened: as §1
# [16] = compound: CNc1nc(-c2ccc3c(N)n[nH]c3c2)cc(N2C[C@@H](C(=O)NC3CCCCC3)CC[C@H]2C)n1
# Procedure, shortened: as §1
# [17] = compound: COC(=O)N[C@@H](C)CNc1nccc(-c2cn(C(C)C)nc2-c2cc(Cl)cc(NS(C)(=O)=O)c2F)n1 [encorafenib]
# Procedure, shortened: as §1
# [18] = compound: COC(=O)[C@H](CCSC)NC(=O)C1=C(C=C(C=C1)NC[C@H](CS)N)C2=CC=CC=C2
# Procedure, shortened: as §1
# [19] = compound: CCn1c(C(=O)N(C2CC2)C2CC2)cc2c3c(ncn3C)c(Nc3cc(C)n(C)n3)nc21
# Procedure, shortened: as §1
# [20] = compound: CN1CCc2c(c3ccccc3n2Cc2ccc(C(=O)NO)cc2)C1 [Tubastatin A]
# Procedure, shortened: as §1
Target,log2 fold change [1],log2 fold change [2],log2 fold change [3],log2 fold change [4],log2 fold change [5],log2 fold change [6],log2 fold change [7],log2 fold change [8],log2 fold change [9],log2 fold change [10],log2 fold change [11],log2 fold change [12],log2 fold change [13],log2 fold change [14],log2 fold change [15],log2 fold change [16],log2 fold change [17],log2 fold change [18],log2 fold change [19],log2 fold change [20]
CARHSP1 (UniProt H3BNU9),inactive: 0.032,inactive: 0.246,inactive: -0.161,inactive: 0.16,inactive: -0.522,inactive: -0.027,inactive: -0.107,inactive: -0.003,inactive: -0.213,,,,,,,,,,,
CCDC144A (UniProt A2RUR9),,inactive: 0.04,,,,,,,,inactive: 0.122,inactive: 0.14,inactive: 0.087,inactive: 0.235,inactive: -0.12,inactive: -0.142,inactive: -0.014,inactive: 0.01,inactive: 0.007,,
CD80 (UniProt P33681),inactive: -0.113,,inactive: -0.001,inactive: 0.239,inactive: -0.177,inactive: 0.071,inactive: -0.345,inactive: -0.011,inactive: -0.001,inactive: 0.115,inactive: 0.063,inactive: -0.069,inactive: 0.032,inactive: 0.014,inactive: -0.085,inactive: 0.11,inactive: 0.016,inactive: -0.082,inactive: -0.011,inactive: 0
CCDC152 (UniProt Q4G0S7),,,,,,,,,,inactive: -0.051,,inactive: 0.032,inactive: 0.12,inactive: -0.067,inactive: 0.062,inactive: 0.056,,,,
CASP7 isoform 3 (UniProt P55210),inactive: -0.117,inactive: 0.059,inactive: -0.049,,,,inactive: -0.058,inactive: 0.079,inactive: 0.108,,inactive: -0.148,inactive: 0.056,inactive: -0.091,inactive: -0.016,,inactive: -0.059,inactive: 0.16,active: 0.379,inactive: -0.119,inactive: -0.051
CCT6B isoform 3 (UniProt Q92526),inactive: 0.01,,inactive: 0.122,,,,,inactive: 0.229,,inactive: 0.007,,inactive: 0.082,,,inactive: -0.007,inactive: 0.315,,,,
CCND2 (UniProt P30279),inactive: 0.069,inactive: -0.175,inactive: -0.032,,,,inactive: 0.096,inactive: 0.129,inactive: 0.141,,,inactive: 0.051,inactive: 0.066,inactive: -0.104,,inactive: -0.011,,,inactive: 0.088,inactive: 0
CBR1 (UniProt P16152),inactive: 0.011,inactive: -0.013,inactive: 0.004,inactive: -0.096,inactive: 0.077,inactive: -0.013,inactive: -0.024,inactive: 0.023,inactive: -0.068,inactive: -0.009,inactive: -0.019,inactive: 0.037,inactive: -0.047,inactive: -0.006,inactive: 0.008,inactive: -0.041,inactive: 0,inactive: 0.02,inactive: 0,inactive: 0.015
CCDC50 (UniProt Q8IVM0),inactive: 0.183,inactive: -0.061,inactive: 0.063,,,,inactive: -0.031,inactive: -0.218,inactive: -0.099,,inactive: 0.209,,inactive: -0.127,inactive: -0.063,,,inactive: 0.046,inactive: -0.121,inactive: -0.051,inactive: 0.017
CCDC13 (UniProt Q8IYE1),inactive: 0,inactive: 0.731,inactive: 0.017,inactive: 0.389,inactive: -0.013,inactive: -0.02,inactive: -0.039,inactive: -0.085,inactive: -0.044,inactive: 0.196,inactive: 0.305,inactive: -0.093,inactive: 0.126,,inactive: 0.051,inactive: 0.669,inactive: -0.089,inactive: 0.093,,
CBFA2T2 isoform 4 (UniProt O43439),inactive: 0.215,,inactive: -0.127,inactive: -0.084,inactive: 0.109,inactive: 0.003,inactive: -0.089,inactive: -0.09,inactive: -0.066,inactive: 0.106,inactive: 0.058,inactive: 0.032,inactive: -0.032,inactive: 0.061,inactive: -0.124,inactive: 0.236,inactive: 0.091,inactive: 0.172,inactive: 0.039,inactive: -0.146
CCDC59 (UniProt Q9P031),inactive: 0.114,inactive: 0.014,inactive: -0.021,inactive: 0.079,inactive: -0.013,inactive: -0.004,inactive: -0.042,inactive: 0.045,inactive: -0.026,inactive: -0.04,inactive: -0.04,inactive: -0.012,inactive: -0.061,,inactive: 0.01,inactive: 0.095,inactive: 0.075,inactive: -0.022,,
CD226 (UniProt Q15762),inactive: -0.052,inactive: -0.015,inactive: -0.034,,,,,inactive: 0.069,,,,,,,,,,,,
CASP8 isoform 4 (UniProt Q14790),,inactive: 0.15,,,,,,,,,,inactive: 0.071,,,,inactive: -0.028,,,,
CCDC130 (UniProt P13994),,inactive: 0.045,,,,,,,,,inactive: 0.036,,inactive: 0.147,inactive: -0.275,,,inactive: -0.015,inactive: 0.09,inactive: -0.027,inactive: -0.066

# Some of the entries above in a different format.
Target | log2 fold change [1] | log2 fold change [2] | log2 fold change [3] | log2 fold change [4] | log2 fold change [5] | log2 fold change [6] | log2 fold change [7] | log2 fold change [8] | log2 fold change [9] | log2 fold change [10] | log2 fold change [11] | log2 fold change [12] | log2 fold change [13] | log2 fold change [14] | log2 fold change [15] | log2 fold change [16] | log2 fold change [17] | log2 fold change [18] | log2 fold change [19] | log2 fold change [20]
CD80 (UniProt P33681) | inactive: -0.113 |  | inactive: -0.001 | inactive: 0.239 | inactive: -0.177 | inactive: 0.071 | inactive: -0.345 | inactive: -0.011 | inactive: -0.001 | inactive: 0.115 | inactive: 0.063 | inactive: -0.069 | inactive: 0.032 | inactive: 0.014 | inactive: -0.085 | inactive: 0.11 | inactive: 0.016 | inactive: -0.082 | inactive: -0.011 | inactive: 0
CCDC59 (UniProt Q9P031) | inactive: 0.114 | inactive: 0.014 | inactive: -0.021 | inactive: 0.079 | inactive: -0.013 | inactive: -0.004 | inactive: -0.042 | inactive: 0.045 | inactive: -0.026 | inactive: -0.04 | inactive: -0.04 | inactive: -0.012 | inactive: -0.061 |  | inactive: 0.01 | inactive: 0.095 | inactive: 0.075 | inactive: -0.022 |  | 
CD226 (UniProt Q15762) | inactive: -0.052 | inactive: -0.015 | inactive: -0.034 |  |  |  |  | inactive: 0.069 |  |  |  |  |  |  |  |  |  |  |  | 
CASP8 isoform 4 (UniProt Q14790) |  | inactive: 0.15 |  |  |  |  |  |  |  |  |  | inactive: 0.071 |  |  |  | inactive: -0.028 |  |  |  | 
